In all, about 330,000 compounds went through this assay and about 7,700 (2.3%) were called active. Inconclusive results, whose numbers are uncertain, are shown with a selection of clear calls. The call rests on the fitted dose curve; in most records, active means well fitted inhibition curve with a large enough effect; inconclusive means small, poorly fitted or top-dose-only effect, or effect the other way; inactive means flat fitted curve, though single readings scatter. Potencies of inconclusive entries are doubtful fits and often do not repeat.
test: qHTS screen for small molecules that inhibit ELG1-dependent DNA repair in human embryonic kidney (HEK293T) cells expressing luciferase-tagged ELG1; details: HEK293T ELG1-luciferase reporter, luminescence, 16 h, DNA damage induced by 5-fluorouridine; activity change, negative = inhibition: at 46.1 µM (top of the series); further: nearly all actives have a fitted effect of over 55% in size
How it was run: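 Reporter activity after DNA damage by 5-fluorouridine is monitored. Compound-treated cells incubate 16 hr at 37 °C, then ONE-Glo is added for 30 min before luminescence reading.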
On the % scale 0 is the no-effect control and ±100 the full control effect; potency means the concentration at half of the fitted maximal effect.

Structure (SMILES) | Potency | activity change, negative = inhibition
COc1ccc(C2=NN(S(C)(=O)=O)C(c3ccc4nccnc4c3)C2)cc1 (centres undefined) | inconclusive: 16.4 µM [activator, partial curve] | –
C#CCOCCOCCOCCNc1nc(N2CCOCC2)nc(N2CCN(C(=O)CCCCCCCCCCNC(=O)[C@@H](CCSC)n3cc(CCO)nn3)CC2)n1 | inconclusive: 5.62 µM [inhibitor, single point] | –
O=C1N(c2ccccc2C(F)(F)F)O[C@]1(c1ccccc1)C1CCCC1 | inconclusive: 11.6 µM [inhibitor, partial curve, poor fit] | –
O=C1CCCc2oc3ccc(NS(=O)(=O)c4cccc5cccnc45)cc3c21 | inconclusive: 23.1 µM [inhibitor, partial curve, poor fit] | –
CCn1nc(C(=O)Nc2ccc3nc(C)sc3c2)c2ccccc2c1=O | inconclusive: 29.1 µM [inhibitor, single point] | –
CCC(O)(C#CCN1CCCCC1)CC | inconclusive: 20.6 µM [activator, partial curve, poor fit] | –
C=CCNC(=S)/N=c1\sccn1C | – | inactive: 14.9%
O=C(Nc1cccc(-c2ccc(N3CCOCC3)nn2)c1)c1ccc(Cl)cc1 | inconclusive: 4.11 µM [activator, partial curve] | –
Cc1ccccc1CS(=O)(=O)CCC(=O)NCc1ccc(F)cc1Cl | – | inactive: 7.25%
COc1ccc(/C=C2\SC(=O)N(CCNC(=O)CCS(=O)(=O)c3ccc(C)cc3)C2=O)cc1 | inconclusive: 2.91 µM [activator, full curve] | –
O=C(COC(=O)CCS(=O)(=O)c1ccc(Cl)cc1)NCCc1ccccc1 | inconclusive: 18.4 µM [activator, partial curve, poor fit] | –
COc1cc2ncnc(NCc3ccccc3F)c2cc1OC | – | inactive: -16.5%
CCCN(CC(=O)Nc1ccccc1OC)C(=O)CC1CCCC1 | – | inactive: -1.46%
O=C(N/N=C/c1ccc(O)c(Br)c1)c1cc2c(ccc3ccccc32)o1 | inconclusive: 32.6 µM [inhibitor, single point] | –
CC1N(O)C(c2ccc(Cl)cc2Cl)N(O)C1(C)C (centres undefined) | inconclusive: 29.1 µM [inhibitor, single point] | –
O=C(CC(Nc1ccccc1Cl)C(=O)OCC(=O)c1cccs1)c1ccccc1 (centres undefined) | inconclusive: 11.6 µM [activator, partial curve] | –
CCc1nc(NC(=O)c2sc(C)nc2C)sc1C(=O)OC | – | inactive: -1.17%
CCOC(=O)c1cnc2cc(C)nn2c1-c1ccccc1 | – | inactive: -6.48%
COc1cc(CN2CCN(Cc3ccccc3C(F)(F)F)CC2)cc(OC)c1OC | inconclusive: 23.1 µM [inhibitor, single point] | –
CC1CCN(CCCNC(=O)c2cc3c(=O)n(C)c4ccccc4c3n2C)CC1 | inconclusive: 18.4 µM [activator, partial curve] | –
COCCN(Cc1cc2cc3c(cc2nc1Cl)OCO3)C(=O)Nc1ccc(OC)cc1 | – | inactive: -12.2%
CCc1ccc(C(=O)CSc2nc3cc(S(=O)(=O)N4CCOCC4)ccc3n2CC)cc1 | – | inactive: 10.8%

Structural class: those above with a carbonyl joined to an NH by a bond outside any ring
Structure (SMILES) | Potency | activity change, negative = inhibition
C#CCOCCOCCOCCNc1nc(N2CCOCC2)nc(N2CCN(C(=O)CCCCCCCCCCNC(=O)[C@@H](CCSC)n3cc(CCO)nn3)CC2)n1 | inconclusive: 5.62 µM [inhibitor, single point] | –
CCn1nc(C(=O)Nc2ccc3nc(C)sc3c2)c2ccccc2c1=O | inconclusive: 29.1 µM [inhibitor, single point] | –
O=C(Nc1cccc(-c2ccc(N3CCOCC3)nn2)c1)c1ccc(Cl)cc1 | inconclusive: 4.11 µM [activator, partial curve] | –
Cc1ccccc1CS(=O)(=O)CCC(=O)NCc1ccc(F)cc1Cl | – | inactive: 7.25%
COc1ccc(/C=C2\SC(=O)N(CCNC(=O)CCS(=O)(=O)c3ccc(C)cc3)C2=O)cc1 | inconclusive: 2.91 µM [activator, full curve] | –
O=C(COC(=O)CCS(=O)(=O)c1ccc(Cl)cc1)NCCc1ccccc1 | inconclusive: 18.4 µM [activator, partial curve, poor fit] | –
CCCN(CC(=O)Nc1ccccc1OC)C(=O)CC1CCCC1 | – | inactive: -1.46%
O=C(N/N=C/c1ccc(O)c(Br)c1)c1cc2c(ccc3ccccc32)o1 | inconclusive: 32.6 µM [inhibitor, single point] | –
CCc1nc(NC(=O)c2sc(C)nc2C)sc1C(=O)OC | – | inactive: -1.17%
CC1CCN(CCCNC(=O)c2cc3c(=O)n(C)c4ccccc4c3n2C)CC1 | inconclusive: 18.4 µM [activator, partial curve] | –
COCCN(Cc1cc2cc3c(cc2nc1Cl)OCO3)C(=O)Nc1ccc(OC)cc1 | – | inactive: -12.2%

(further entries)

Structure (SMILES) | Potency | activity change, negative = inhibition
Oc1ccccc1/C=N/Nc1nccnc1Cl | inconclusive: 29.1 µM [activator, single point] | –
CCN(CC(=O)Nc1ccc(NC(C)=O)cc1)C(=O)c1n[nH]c(=O)c2ccccc12 | – | inactive: -12.2%
OCCN(CCO)c1nc(-c2ccccc2)nc2c1oc1ccccc12 | active: 23.1 µM | –
O=C(Cc1ccccc1F)Nc1nc(-c2ccc(F)cc2)cs1 | – | inactive: -12.4%
CCCCOC(=O)NC(NCC(O)c1ccccc1)(C(F)(F)F)C(F)(F)F (centres undefined) | inconclusive: 16.4 µM [inhibitor, partial curve, poor fit] | –
O=C1/C(=C\c2ccc(O)c(O)c2)N=C2CCCCCN12 | inconclusive: 23.1 µM [activator, partial curve] | –
COc1ccc(C(CNC(=O)c2cccc(S(=O)(=O)N(C)c3ccccc3)c2)N2CCCC2)cc1 (centres undefined) | inconclusive: 20 µM [inhibitor, single point] | –
COCCn1c(SCC(=O)c2c(N)n(C3CC3)c(=O)[nH]c2=O)nnc1-c1ccc(Cl)cc1 | – | inactive: 10.3%
COc1cccc(Nc2nc(-c3sc(NC(=O)c4ccccc4)nc3C)cs2)c1 | inconclusive: 23.1 µM [inhibitor, single point] | –
COc1ccccc1C1CC(=O)Nc2c1c(=O)n(C)c(=O)n2C (centres undefined) | inconclusive: 8.2 µM [activator, partial curve] | –
CN(C)c1ccc(NS(=O)(=O)c2ccc(Cl)cc2)cc1 | – | inactive: 6.2%
O=C1CCC([N+](=O)[O-])C(c2cc3c(cc2Cl)OCO3)N1 (centres undefined) | – | inactive: 2.01%
Cc1nn(-c2ccccc2)c2nc(-c3cccs3)cc(C(=O)NN)c12 | inconclusive: 14.6 µM [inhibitor, partial curve, poor fit] | –
CCCOC(=O)c1c(NC(=O)CCCn2nc([N+](=O)[O-])cc2C)sc(C(=O)OC)c1C | inconclusive: 16.4 µM [inhibitor, single point] | –
O=C1c2ccccc2NC2(CCCC2)N1O | – | inactive: 5.34%
CC(=O)c1ccc(S(=O)(=O)NCc2ccc(C(=O)NCC(c3ccccc3)N(C)C)cc2)cc1 (centres undefined) | inconclusive: 29.1 µM [activator, single point] | –
O=C(O)C1CCC(Cn2c(SCc3cc(=O)n4cc(Cl)ccc4n3)nc3ccsc3c2=O)CC1 (centres undefined) | inconclusive: 6.51 µM [inhibitor, partial curve, poor fit] | –
c1ccc(CCc2nc(-c3ccncc3)no2)cc1 | inconclusive: 14.6 µM [activator, partial curve] | –
Cn1ncc2cc(NC(=S)NC(=O)c3ccccc3)ccc21 | inconclusive: 7.94 µM [activator, partial curve] | –
Cc1c(C=O)c2cc(OCc3ccccc3)ccc2n1C | inconclusive: 10 µM [activator, partial curve] | –
COCCn1c(C)cc(C(=O)CSc2ccc3ccccc3n2)c1C | inconclusive: 11.6 µM [activator, partial curve] | –
CCOc1ccc(NC(=O)C(CC)n2nc(C)c3c(C)n(-c4ccccc4)nc3c2=O)cc1 (centres undefined) | inconclusive: 16.4 µM [inhibitor, partial curve] | –

Source: PubChem BioAssay AID504467 (National Center for Advancing Translational Sciences (NCATS), 2011)
